± gives the standard deviation of the averaged measurements. The list shows a part of the results.
Compound: Nc1nc2c(ncn2[C@@H]2O[C@H](COP(=O)(O)OP(=O)(O)OP(=O)(O)O)[C@@H](O)[C@H]2O)c(=O)[nH]1 [guanosine triphosphate]
Test: NP40-soluble protein abundance relative to vehicle (solubility fold change) (ratio); higher = more soluble protein in presence of GTP
Outline: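 Data come from three independent experiments in which Dounce-homogenised Jurkat crude lysate was treated at eight concentrations from 0.1 to 10 mM. Treatment ran 10 min at room temperature and then 3 min at 37 °C, after which 0.8% NP40 and benzonase were added for 60 min at 4 °C before ultracentrifugation. The supernatant underwent TMT labelling and LC-MS/MS, and vsn-normalised intensities were expressed as fold change against the detergent-processed vehicle in each replicate.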

Protein sequences, listed by entry. Tags and fused reporters are not part of them. Lines headed by an entry give the natural chain unless they say otherwise; changes in a name come on top.
UniProt P30101, whole entry: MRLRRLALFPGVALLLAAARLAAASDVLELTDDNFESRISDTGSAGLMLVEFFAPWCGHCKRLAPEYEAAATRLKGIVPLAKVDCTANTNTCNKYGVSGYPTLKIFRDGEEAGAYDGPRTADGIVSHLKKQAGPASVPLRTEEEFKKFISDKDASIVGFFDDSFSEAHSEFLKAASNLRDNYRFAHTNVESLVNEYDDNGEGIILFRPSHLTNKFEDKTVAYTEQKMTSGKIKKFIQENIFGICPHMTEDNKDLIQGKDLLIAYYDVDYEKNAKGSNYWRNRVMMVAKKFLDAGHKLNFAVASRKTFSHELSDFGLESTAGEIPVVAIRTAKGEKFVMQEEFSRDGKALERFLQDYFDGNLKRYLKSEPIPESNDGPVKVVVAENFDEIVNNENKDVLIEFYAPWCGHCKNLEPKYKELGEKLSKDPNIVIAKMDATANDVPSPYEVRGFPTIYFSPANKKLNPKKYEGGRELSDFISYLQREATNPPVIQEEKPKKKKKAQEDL
UniProt P17544: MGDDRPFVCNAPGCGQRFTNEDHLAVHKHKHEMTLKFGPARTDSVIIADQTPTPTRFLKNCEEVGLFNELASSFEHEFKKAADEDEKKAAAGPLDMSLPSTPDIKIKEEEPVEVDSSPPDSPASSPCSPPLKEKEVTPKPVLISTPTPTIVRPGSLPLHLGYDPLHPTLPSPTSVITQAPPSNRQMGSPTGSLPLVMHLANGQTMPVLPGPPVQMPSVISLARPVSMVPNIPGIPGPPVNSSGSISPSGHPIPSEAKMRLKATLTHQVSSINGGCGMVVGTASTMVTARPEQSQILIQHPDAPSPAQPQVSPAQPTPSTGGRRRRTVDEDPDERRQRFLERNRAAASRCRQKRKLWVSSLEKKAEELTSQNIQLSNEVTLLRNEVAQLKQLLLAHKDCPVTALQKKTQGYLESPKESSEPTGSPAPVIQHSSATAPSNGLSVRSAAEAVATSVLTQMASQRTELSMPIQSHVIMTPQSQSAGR
UniProt P01130: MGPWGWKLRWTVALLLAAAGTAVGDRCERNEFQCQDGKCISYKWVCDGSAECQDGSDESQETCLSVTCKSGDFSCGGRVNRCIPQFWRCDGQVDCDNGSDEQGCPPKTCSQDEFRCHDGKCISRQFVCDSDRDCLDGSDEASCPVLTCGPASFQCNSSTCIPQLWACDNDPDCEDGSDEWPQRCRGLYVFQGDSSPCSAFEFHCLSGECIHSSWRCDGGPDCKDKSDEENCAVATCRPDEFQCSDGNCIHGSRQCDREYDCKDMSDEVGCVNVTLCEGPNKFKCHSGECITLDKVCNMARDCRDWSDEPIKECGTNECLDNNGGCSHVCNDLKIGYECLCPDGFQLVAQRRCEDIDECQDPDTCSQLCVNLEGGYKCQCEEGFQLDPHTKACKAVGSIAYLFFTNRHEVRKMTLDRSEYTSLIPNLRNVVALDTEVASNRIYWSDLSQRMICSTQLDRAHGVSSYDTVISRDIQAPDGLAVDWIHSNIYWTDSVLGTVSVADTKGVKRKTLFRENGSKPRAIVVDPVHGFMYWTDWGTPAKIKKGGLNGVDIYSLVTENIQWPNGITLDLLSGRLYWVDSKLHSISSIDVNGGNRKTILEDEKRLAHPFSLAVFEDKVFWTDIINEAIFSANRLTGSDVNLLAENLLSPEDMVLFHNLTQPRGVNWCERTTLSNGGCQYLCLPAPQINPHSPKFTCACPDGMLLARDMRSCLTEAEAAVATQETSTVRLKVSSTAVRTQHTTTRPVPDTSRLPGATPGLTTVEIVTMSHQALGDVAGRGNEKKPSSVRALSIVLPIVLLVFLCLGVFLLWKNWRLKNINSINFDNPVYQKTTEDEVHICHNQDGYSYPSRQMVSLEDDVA
UniProt Q8NBT2: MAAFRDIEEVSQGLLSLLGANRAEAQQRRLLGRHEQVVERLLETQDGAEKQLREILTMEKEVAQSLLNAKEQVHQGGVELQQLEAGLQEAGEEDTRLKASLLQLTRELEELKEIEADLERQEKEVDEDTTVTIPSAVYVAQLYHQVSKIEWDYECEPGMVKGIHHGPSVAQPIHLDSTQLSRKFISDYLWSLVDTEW
UniProt Q9NXE4: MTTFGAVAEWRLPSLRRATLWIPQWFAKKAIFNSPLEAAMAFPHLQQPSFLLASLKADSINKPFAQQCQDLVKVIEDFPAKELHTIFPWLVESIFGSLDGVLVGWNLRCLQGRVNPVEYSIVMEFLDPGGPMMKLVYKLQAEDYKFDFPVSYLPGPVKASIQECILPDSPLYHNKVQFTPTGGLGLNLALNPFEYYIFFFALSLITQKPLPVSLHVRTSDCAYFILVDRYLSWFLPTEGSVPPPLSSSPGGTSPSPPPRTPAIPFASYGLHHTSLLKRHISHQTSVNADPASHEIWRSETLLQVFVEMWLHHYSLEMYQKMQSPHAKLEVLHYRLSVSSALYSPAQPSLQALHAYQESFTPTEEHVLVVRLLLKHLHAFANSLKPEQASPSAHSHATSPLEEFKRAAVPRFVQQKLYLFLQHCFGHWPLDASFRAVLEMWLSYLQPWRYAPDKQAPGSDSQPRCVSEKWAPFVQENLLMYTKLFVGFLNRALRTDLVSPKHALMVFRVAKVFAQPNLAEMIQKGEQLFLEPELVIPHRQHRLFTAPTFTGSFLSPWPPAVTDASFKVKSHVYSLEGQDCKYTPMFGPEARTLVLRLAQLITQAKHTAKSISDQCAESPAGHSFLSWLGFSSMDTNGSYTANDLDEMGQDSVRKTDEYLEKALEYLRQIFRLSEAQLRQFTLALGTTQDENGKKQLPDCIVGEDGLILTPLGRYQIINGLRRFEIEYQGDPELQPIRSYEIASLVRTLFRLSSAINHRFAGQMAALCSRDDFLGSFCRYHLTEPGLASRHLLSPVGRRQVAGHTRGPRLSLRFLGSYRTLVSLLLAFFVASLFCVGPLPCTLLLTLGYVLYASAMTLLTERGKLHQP
UniProt Q8NEJ9: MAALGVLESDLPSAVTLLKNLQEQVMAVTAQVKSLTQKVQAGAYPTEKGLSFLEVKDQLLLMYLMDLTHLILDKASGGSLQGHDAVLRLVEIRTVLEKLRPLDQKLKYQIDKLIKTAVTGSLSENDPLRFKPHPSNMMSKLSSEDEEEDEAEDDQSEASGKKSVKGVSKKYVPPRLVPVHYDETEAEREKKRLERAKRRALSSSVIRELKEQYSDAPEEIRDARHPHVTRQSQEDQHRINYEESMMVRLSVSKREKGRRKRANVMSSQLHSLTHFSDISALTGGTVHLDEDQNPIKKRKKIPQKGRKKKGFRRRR

Target: H3BPJ9 and related entries (UniProt O96000)
- NP40-soluble protein abundance (concentration: 0.1mM): 1.02 ± 0.059
- NP40-soluble protein abundance (concentration: 0.5mM): 1.01 ± 0.045
- NP40-soluble protein abundance (concentration: 1mM): 1.16 ± 0.17
- NP40-soluble protein abundance (concentration: 2mM): 1.17 ± 0.12
- NP40-soluble protein abundance (concentration: 4mM): 1.18 ± 0.14
- NP40-soluble protein abundance (concentration: 6mM): 1.15 ± 0.089
- NP40-soluble protein abundance (concentration: 8mM): 1.2 ± 0.15
- NP40-soluble protein abundance (concentration: 10mM): 1.22 ± 0.19

Target: H7BZJ3 and related entries (UniProt P30101)
- NP40-soluble protein abundance (concentration: 0.1mM): 0.921 ± 0.064
- NP40-soluble protein abundance (concentration: 0.5mM): 0.949 ± 0.053
- NP40-soluble protein abundance (concentration: 1mM): 0.927 ± 0.068
- NP40-soluble protein abundance (concentration: 2mM): 0.882 ± 0.071
- NP40-soluble protein abundance (concentration: 4mM): 0.864 ± 0.072
- NP40-soluble protein abundance (concentration: 6mM): 0.877 ± 0.067
- NP40-soluble protein abundance (concentration: 8mM): 0.872 ± 0.061
- NP40-soluble protein abundance (concentration: 10mM): 0.869 ± 0.065

Target: K7ELQ4 and related entries (UniProt P17544+K7ELQ4)
- NP40-soluble protein abundance (concentration: 0.1mM): 0.902 ± 0.047
- NP40-soluble protein abundance (concentration: 0.5mM): 0.863 ± 0.034
- NP40-soluble protein abundance (concentration: 1mM): 0.897 ± 0.071
- NP40-soluble protein abundance (concentration: 2mM): 0.929 ± 0.11
- NP40-soluble protein abundance (concentration: 4mM): 0.908 ± 0.076
- NP40-soluble protein abundance (concentration: 6mM): 0.93 ± 0.1
- NP40-soluble protein abundance (concentration: 8mM): 0.923 ± 0.058
- NP40-soluble protein abundance (concentration: 10mM): 0.953 ± 0.045

Target: J3KMZ9 and related entries (UniProt P01130)
- NP40-soluble protein abundance (concentration: 0.1mM): 1.07 ± 0.11
- NP40-soluble protein abundance (concentration: 0.5mM): 1.1 ± 0.14
- NP40-soluble protein abundance (concentration: 1mM): 1.16 ± 0.12
- NP40-soluble protein abundance (concentration: 2mM): 1.11 ± 0.071
- NP40-soluble protein abundance (concentration: 4mM): 1.09 ± 0.086
- NP40-soluble protein abundance (concentration: 6mM): 1.11 ± 0.12
- NP40-soluble protein abundance (concentration: 8mM): 1.17 ± 0.18
- NP40-soluble protein abundance (concentration: 10mM): 1.16 ± 0.15

Target: K7EJH0 and related entries (UniProt Q8NBT2)
- NP40-soluble protein abundance (concentration: 0.1mM): 0.946 ± 0.05
- NP40-soluble protein abundance (concentration: 0.5mM): 0.921 ± 0.036
- NP40-soluble protein abundance (concentration: 1mM): 1.03 ± 0.099
- NP40-soluble protein abundance (concentration: 2mM): 1.01 ± 0.042
- NP40-soluble protein abundance (concentration: 4mM): 0.996 ± 0.067
- NP40-soluble protein abundance (concentration: 6mM): 0.984 ± 0.032
- NP40-soluble protein abundance (concentration: 8mM): 0.988 ± 0.062
- NP40-soluble protein abundance (concentration: 10mM): 1.13 ± 0.13

Target: H7BXF4 and related entries (UniProt Q9NXE4)
- NP40-soluble protein abundance (concentration: 0.1mM): 0.965 ± 0.041
- NP40-soluble protein abundance (concentration: 0.5mM): 1.01 ± 0.1
- NP40-soluble protein abundance (concentration: 1mM): 0.932 ± 0.013
- NP40-soluble protein abundance (concentration: 2mM): 0.981 ± 0.095
- NP40-soluble protein abundance (concentration: 4mM): 0.992 ± 0.03
- NP40-soluble protein abundance (concentration: 6mM): 0.929 ± 0.056
- NP40-soluble protein abundance (concentration: 8mM): 0.897 ± 0.083
- NP40-soluble protein abundance (concentration: 10mM): 0.885 ± 0.087

Target: H0YJ17 and related entries (UniProt Q8NEJ9)
- NP40-soluble protein abundance (concentration: 0.1mM): 0.963 ± 0.092
- NP40-soluble protein abundance (concentration: 0.5mM): 0.938 ± 0.16
- NP40-soluble protein abundance (concentration: 1mM): 1.21 ± 0.14
- NP40-soluble protein abundance (concentration: 2mM): 1.32 ± 0.032
- NP40-soluble protein abundance (concentration: 4mM): 1.35 ± 0.071
- NP40-soluble protein abundance (concentration: 6mM): 1.49 ± 0.067
- NP40-soluble protein abundance (concentration: 8mM): 1.31 ± 0.19
- NP40-soluble protein abundance (concentration: 10mM): 1.67 ± 0.091

— the supplement of paper PMC6411743
